Measured values as given in patent US20090214427A1, “Novel peptides” (Licentia OY, priority 2004, published 2009).
Results are given in words; binding and its absence hold for the method and conditions named. Some results given as binding are weak or reduced against the parent protein; the word gives no strength.

Protein sequences, listed by entry. Tags and fused reporters are not part of them. Residues count along the entry.
UniProt P20151, residues 25-261: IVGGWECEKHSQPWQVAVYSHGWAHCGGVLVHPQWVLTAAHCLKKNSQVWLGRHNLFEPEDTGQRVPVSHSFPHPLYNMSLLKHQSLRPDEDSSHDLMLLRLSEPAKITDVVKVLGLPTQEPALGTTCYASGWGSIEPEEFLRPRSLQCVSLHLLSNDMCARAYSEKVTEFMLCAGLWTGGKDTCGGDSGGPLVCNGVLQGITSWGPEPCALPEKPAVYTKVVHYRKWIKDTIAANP

Molecular target: recombinant wild-type (wt) human kallikrein 2 (human) (UniProt P20151)
Experiment: competition phage IFMA on hK2 captured by MAb 5E4; 5 µM synthetic peptide

binding | Binder
binds | AARRPFPAPS [synthetic peptide HK2p02 (…)]
binds | PARRPFPVTA [synthetic peptide HK2p03 (…)]
